Read-outs that look alike come from different tables or passages of the source. Marks after values point to notes of the source that are not given here.
How the values were obtained:
HepG2 cells [1] = settings: SI = CC50/MIC H37Rv, MTT method
HepG2 cells [2] = settings: SI = CC50/MIC H37Rv, Neutral Red method

## Cc1cc(OCCCNc2ccc(Cl)cc2)c2cc(Br)ccc2n1 [8r, N-(3-((6-bromo-2-methylquinolin-4-yl)oxy)propyl)-4-chloroaniline]
HepG2 cells [1]
  SI HepG2: >200 ^b; > 200 ^c

## N-(3-((6-bromo-2-ethylquinolin-4-yl)oxy)propyl)-4-ethylaniline [8w]
HepG2 cells [1]
  SI HepG2: > 200
HepG2 cells [2]
  SI HepG2: 83

From paper PMC11684019, “Unveiling the Antimycobacterial Potential of Novel 4-Alkoxyquinolines: Insights into Selectivity, Mechanism of Action, and In Vivo Exposure” (Journal of Medicinal Chemistry, 2024)
